From patent publication US8017315B2, “Mitochondrial localization of MUC1” (Dana Farber Cancer Institute, Inc., priority 2005, dated 2011)
At least one structure is not confirmed: it was looked up by name or label, or the drawing left a doubt.

Key:
[1] = system: localization of MUC1-C to mitochondria; assay: Immunoblot of purified mitochondria for MUC1 targeting; format: cell-based, Human; details: HCT116/MUC1 cells
Description: Cell culture. Human HCT116/vector, HCT116/MUC1, HCT116/MUC1(Y46F) (Ren et al. (2004) Cancer Cell 5:163-175) and HCT116/MUC1-CD (Huang et al. (2003) Cancer Biol. Ther. 2:702-706) cells were cultured in Dulbecco's Modified Eagle Medium/F12 with 10% heat-inactivated fetal bovine serum (HI-FBS), 100 units/ml penicillin, […], and 2 mM L-glutamine. Human HeLa cervical carcinoma, 293 embryonic kidney and MCF-7 breast cancer cells were grown in Dulbecco's Modified Eagle Medium containing 10% HI-FBS, antibiotics and L-glutamine. Human ZR-75-1 breast cancer cells were cultured in RPMI1640 medium containing 10% HI-FBS, antibiotics and L-glutamine. Cells were grown to 60% confluence and then maintained overnight in medium with 0.1% serum before treatment with heregulin (HRG; 20 ng/ml; Calbiochem-Novabiochem, LaJolla, Calif.).
Immunoprecipitation and immunoblotting. […] Reactivity was detected with horseradish peroxidase-conjugated secondary antibodies and chemiluminescence (PerkinElmer Life Sciences, Boston, Mass.). Intensity of the signals was determined by densitometric scanning. Statistical significance was determined by the Student's t-test. […]

[2] = system: total intracellular MUC1 levels; assay: Immunoblot of whole cell lysates for total MUC1; format: cell-based, Human; details: HCT116/MUC1 whole cell lysates; GA 4, 8, 16 hours

COC1=C2C[C@@H](C)C[C@H](OC)[C@H](O)[C@@H](C)/C=C(\C)[C@H](OC(N)=O)[C@@H](OC)/C=C\C=C(/C)C(=O)NC(=CC1=O)C2=O [GA, geldanamycin]
constitutive mitochondrial MUC1 levels ([1]; GA exposures of 8 and 16 hours (tested 4, 8, 16 hours)): Decreases in mitochondrial MUC1 levels were detectable
half-life of GA-induced decrease of mitochondrial MUC1 ([1]; densitometric scanning): approximately 8 hours
total intracellular MUC1 levels [2]: little effect on total intracellular MUC1 levels
